The chains are these.
B1: ABC transporter family proteins (TTHERM_00564120) (protein, UniProt I7LWG7 1-719)
chain: MQYLNQQGSIIKKVQLNRYLEKEYFKRNKKKRIKQSKIGQITRQQKMAAQSKIPSNDQLWADLMSQFVKFFFKNGQRTTITISAILALLGMLKLRKNQRSREVDSKVKQEKERKGKGDVDKVFFERIKTLLKIVIPSIKCTAIIDIVLLTVFLVFRTYLSIYLAGANGRIVKAIIKLDYQLFVKRIIQLCMIAIPASFVNSYLDFLNKRLAVFFRTQLTQHLCGLYLNGMIGYQLTSLDCRVANPDQRLTNDIEKWANSLSVIYSNFTKPVLDIILFSRKLAEQVGWRGPLMVVLWYFFSGLVIKYISPPFGKLTAIAQRNEGDYRHCHTDIVHHCEEIAFYRGNNWEKERVAESFNKLIRHQVNVMVKRMYMGTFDSMLVKYGAVMVGYAVLGLPVFGPGKEQYLAKIGKDSSTITRDYVRNSSLLINLAKAIGRLVVSYKEIQELAGYTTVVCEMRDVLLDLNKGQYKRKLVESAVEYGFQQTTAPQFVTIQTGNLHEVEDVIKFDKVPIVTPGGEKLVREISLEIKVGENVIVTGPNGCGKSSLFRILGGLWPIFTGSLSSPQLSELFYIPQKAYLPTGTLRDQIIYPDTRLQMLRKKKTDDDLIEYLKNVNLEYIVNREPKKFEAFEDWYDKLSGGEKQRIAMARMFYHHPKFAILDECTSAVSADVENSLYAYCRKNNITLFTISHRVNDLKQHHDYILRFDGEGDWKLEKINH
B2: TTHERM_00151470 (protein, UniProt I7MGG8 1-405)
chain: MISRRLLHCFNRSSKLLNNKNQYRFESLNDTSNLTEDQVLVQQAALNFTKEHLLPFASEWDQKSQSPIEVYKEAGKLGFACIYSSPDHGGSGMDRVSASLVFEALATACVSTSSYLSILNMNHWIIDTYGNEKQKAEWLPQLSTVEKFSSYCLTEPGSGSDAANMKTFAKKDGGDYVINGSKCFISNAGFSDLYVVMCKTGENERSCILVPSDAKGLSFGKPEVKMGWHASPTASITFDNVRVPQSNLISTEGNGFKIAMTALDGGRVNIASTSLGSAAQCLAKTKEYVGQRKQFGKSIDSFQNTQFRIAEMATDLIASRLLVREAAKKIDLNHPNKTLYASMAKIQATEKCYNIVDQCLQLHGGYGYISEYNIERHLRDLRVNRILEGTNEIMRLIVSRQVIKQ
B3: TTHERM_00586710 (protein, UniProt I7M8T5 1-694)
chain: MSNDNKSNASSRLSALNSQMPELSPSQLLHSYRNRSKVDRQGLYETFYGPKWEFRNKVYDIICNNSEKFSAPYIDEHDRERTRYAAFKELHFIQKSLNMGYAEYQKDPHAFSMTSNAVYSWSPAICVKYGVHFSLYGKTLMNLGTEKHLPYIYRMMKLEDIGSFGLTEMGHGSNVRGIKTTAIYDPQSNEFIINTPEEVDMKFWIGATAQLANMTVCWAQLYVEGKCHGVHAFLVPIRNKDTHRVMPGITVGDCGPKNGLDGIDNGFMIFHNVRIPYDNLLDKFSQIENGKFKTWIESDDKRFGFQMASLSGGRVQVACNSNQNSIIAVAIAGRYSTIRKQFGAPGKPEQPIIEYPLTQYRIIPNVATAIVLQLSTITLSILWDENQKHLLDVKNTLINELHAISSAIKAISTWTAQRIITESRQILGGHGFSTFNRFGQLYNDNDVNVTWEGDNNVLLQQTGKFLLDSAKKLMKGKKLPFKCTSYISLDPAEGQQSELNSNEDFFNQGKLLKALQWRVNLLLQKTGLKMQEYMQVSKNGWDAFNNAQPFYSVELAKAFGDTWSAEQAIETISKVQNPENKRVLSDFVTLYLLETINKDIGNFRFGGYINCQQYEQIRSSILKLCNKLKDEFIAVLDALAPPDFILQAPFGASDGDIYNRYIGLIYSAKSTFKRPDWWKEVHKAHKKYHFEIDA
B4: TTHERM_00530250 (protein, UniProt I7MGE1 1-505)
chain: MVPDNPAIIDPILNNLKKTFRTGKTRDLAFRKQQLRNLLTGIKEMEDEISEAVQKDLGYQDPKVAKFLNLLPTIGDIEYILNNFESWAQKRSVDVSLVVGPGSGYIIPEPYGVTLVIGAWNYPFNTTVAPAANAIAAGNCVALKPSEMSPHNSNVMKKLFDKYLDKDCYTVIEGQVEVAKAICYKPWDHIIFTGSPQKGKLVAQAASQNLIPCTLELGGKSPTIVDKTANLNVAVARIAQGKIGNSGQTCIAPDFAIVDQDIKDQFLSSLKEAMITQISNNPETSRDYNRMINEFHTKRMESMIKTHGGQIYYGGKVDVSKKFVEPTIIVNPKLDSECMQDEIFGPIFPVIFYKNFDEVINFINDRPKPLALYYFGENKTHKDRLLNETSSGHLSFNECVMHYINNTLPFGGVGNSGSGVIHGKLGFENCSHLKPVLDKSGTLGSLNSYPLNCRYPPYTESKLKTLNFLIKNLDVYPSEVLKSRKFLSVAVLATSALAYYFNPFK
B5: TTHERM_00825210_RAB1C (protein, UniProt E1CAY3 1-210)
chain: MIKDYDHLFKLVIIGNSGVGKSSLLLRFSDDQFNESYLTTIGVDFRFRTLPIDQKQVKLQIWDTAGQERFRTITSAYYKGADGIVMVYDVTSENSFQDIDKFWISEVESYAEKNVELLLIGNKSDLEKQVSTQTAQEYAKSKNMEFFECSAKTSDSVQQAFLTLARKLMNKKEQLNKPKQYAPQGGSTQPRQNQSLSNRNNVQKQDKGCC
B6: TTHERM_00622710 (protein, UniProt Q241B3 1-631)
chain: MFARGITKATQLTLRNTKQFSTMAGFSGLKSYSQFFTKSNMNLKIGLLGLIGVGIAGYSTSQSYHSDEYYEKVIPANLQEGQKIDVQVGPKEEDSVLVAKVDGKYYCVSNKCPHFGFSLSKGVMFYDKVVCPLHNAAFSVKDGAAEGGPVVNGLENFEIVEKDGNLHIKVPKAKLNVPKPFDMVKRDPNDKRKFVIVGGGPAGISAAETLRQSGYTGQITILSKEKFIPYDRTILSKALFFADINKLQYRSKEFLESYGIEVVNEVEVTEIDTERHFVQTKNQDHIHFDKLLLATGGSPNRIPVEGVNSKNVFTLREFSDLESLKNNFQSSKKVVVIGASFIGLETAASVKDFLKDKVDITVVDQSKVPYQRVLGSEVGAAIKKLHADNGIKFNLGVGIKSIESQNGVAKRVVLSDGTSLEADMVLIGAGVSPNTRFVGEKLEKDNYGALKTDVFLQTSHPDVFAAGDIANYPYHYTGQRARFEHINSSIYQGSIAALNMVGQKTPCGEIPFFWTRFWNKSLHYTGYAPNYDEVHIQGSLDKLEFVAWYIKNDRVVAVSAMNKGPVAMVVNEAMKQNVMPSGTEIKNNIVKYEDIQKRIADRGRNCKCSRGANCCSARKLQQNQASQSAKI
B7: TTHERM_00418280 (protein, UniProt Q22NW7 1-888)
chain: MLSRGVKNLISLQKSYLQSKNFIGLTLRNKYYFRNNNNDEGEDRAPEGFEKFKRRSKKKADQSQGEQTVEQLEKENRKDKEEVEETEDVSASKQKQVNEEDDDPFKKFNRKSNNDKQSSKSSKQSVEKKEESSTESKQQDNQEVNKDESDKNKKDWSFTYSPKIFGFEDKNSKKKDEQKNKQEENQNEKKDDEKEDHNEHENKRKNEDSSQSEFAKKFKEFWNSGNNKKYISAAIAISILGPSLYYQYETQQYISYTEFYKNYLQTDNVRSIAIQRLPIGNNLKTYAKIVTKDGSVKKIVLGNVDHFLEQVEQYQVEKGRDIETLIPISFEYLVDLNKTLDYSFSWLSTMATIAIGYLFYKSMKSGLGSMKGGGGGQDIFGMGKSNVKVFGIDSKVTTRFKDVAGQDEAKQEIQEFVDFLKKPAKYKAIGAKLPKGALLTGPPGTGKTLLAKACAGEAGVPFFFISGSDFVEMFVGVGASRVRDLFKQAKQQSPSIIFIDEIDAVGRKRENKMGGNDERDNTLNQLLVEMDGFGTDANVIVLAATNRKELLDPALTRPGRFDRTIEVTNPDIDGRKQIFMVHLKPLKLHPSKTMEEYAKRLATLTPGFSGADIMNLCNEAAIMAARKNKKFIESIDFELASERVIAGLEKKRIVSEEERKIVAVHESGHAVTSWFLEGGHPLLKLTIIPRTKGSLGFAQYLPNESSLESKEELLDRLCTILGGRCAEEEFFGKITTGAYDDLKRAYELCHALVTKYGMSEKLGYVGYIENDYSKTYSDQTNTLIDEEIKRLIDEATQRTRDLIKKYRSQIEGLSSALLEKETLDLRQISTILGERPFPPKSNYKAYLELQVQDDAEKVQEQAESTIEGESNTHENKEKENASAEKASQ
B8: TTHERM_00849320 (protein, UniProt Q23R52 1-192)
chain: MFIFDFFKNMLGYLGLYKKNGKILFLGLDNAGKTTLLRRLKDGRLVQHDPTLGSHTEELVLGNIRFKAFDLGGHEAVRKTWKNYFASIDGIVYLVDSSDRARFEESKIEFNKIIQTKELEKVPIVILGNKIDIQGAASEDELRINFGLANSSQIGIEKITEIDGRPIELFMCSVSKKIGYADGFQWLSKFLK
B9: TTHERM_00016060 (protein, UniProt Q22RI1 1-260)
chain: MKLDNTIVALVTGGTSGLGEATVYALLEKGVRVFIADRNEEKGLQIQTKYGQDRCRFQKCDVSDEAQVKALVDACVATFGAIHILLNSAGVISAGLIVGGKNQDQTIKTEEMNRVLGVNVVGTFNVTKYVALQMVKQQPLNEFKERGVIVNVASVAGIEGQRGQTVYAASKGAIIGMTLPLARDLGKFGVRVCTIAPGIFQTPMGAGMSDKIIEALSKASALGRVGNPTEFADAILGLATNSFVTGSIFRLDGGIRLPHM
B10: TTHERM_00372688 (protein, UniProt A4VEL3 1-435)
chain: MHISKRDQSSFTNPEFFYLKGVFGKKFYFLSETVLYEYPSEVYFNAHQDQPSNIYNLIEYTFQPDQKGLSVQPKDPKKSVRGTLMETLEMQNAIDWMNCINHNVRRRDNYYIDIIRQNKKIIFNNYQNLEYNMENIMEQDLKTNQSANQTIQFDQKIKQFKKIDQAWMSKVVDKFIKGMESSNHFKKHSENIQLMKKLLQMQNKNYLVEKDQQLIKELDSIIDLFNIQMMDQFYKKEHIRSLIKSKTYYSNYTFMLYEFISQIQKLIIYEMENNNMKYTRDLLCSQEKLIRNSINDLESVVKTLLDEYNSSYSVALTEDIKHALIKVFKFFQNEIDCFLTYINYFIQEIFKSAYQLNQVNYLLQSLNYQQQIQYIGLGQITIEILELSKNQDKFESEEKSKSVLKKLCNNLLSYQLQIQEKLHNLISNIMPSILE

Amino acid sequences for entries named in this document (tags omitted). A change or cut given only in a name is not applied to a line headed by its entry.
UniProt Q23K54: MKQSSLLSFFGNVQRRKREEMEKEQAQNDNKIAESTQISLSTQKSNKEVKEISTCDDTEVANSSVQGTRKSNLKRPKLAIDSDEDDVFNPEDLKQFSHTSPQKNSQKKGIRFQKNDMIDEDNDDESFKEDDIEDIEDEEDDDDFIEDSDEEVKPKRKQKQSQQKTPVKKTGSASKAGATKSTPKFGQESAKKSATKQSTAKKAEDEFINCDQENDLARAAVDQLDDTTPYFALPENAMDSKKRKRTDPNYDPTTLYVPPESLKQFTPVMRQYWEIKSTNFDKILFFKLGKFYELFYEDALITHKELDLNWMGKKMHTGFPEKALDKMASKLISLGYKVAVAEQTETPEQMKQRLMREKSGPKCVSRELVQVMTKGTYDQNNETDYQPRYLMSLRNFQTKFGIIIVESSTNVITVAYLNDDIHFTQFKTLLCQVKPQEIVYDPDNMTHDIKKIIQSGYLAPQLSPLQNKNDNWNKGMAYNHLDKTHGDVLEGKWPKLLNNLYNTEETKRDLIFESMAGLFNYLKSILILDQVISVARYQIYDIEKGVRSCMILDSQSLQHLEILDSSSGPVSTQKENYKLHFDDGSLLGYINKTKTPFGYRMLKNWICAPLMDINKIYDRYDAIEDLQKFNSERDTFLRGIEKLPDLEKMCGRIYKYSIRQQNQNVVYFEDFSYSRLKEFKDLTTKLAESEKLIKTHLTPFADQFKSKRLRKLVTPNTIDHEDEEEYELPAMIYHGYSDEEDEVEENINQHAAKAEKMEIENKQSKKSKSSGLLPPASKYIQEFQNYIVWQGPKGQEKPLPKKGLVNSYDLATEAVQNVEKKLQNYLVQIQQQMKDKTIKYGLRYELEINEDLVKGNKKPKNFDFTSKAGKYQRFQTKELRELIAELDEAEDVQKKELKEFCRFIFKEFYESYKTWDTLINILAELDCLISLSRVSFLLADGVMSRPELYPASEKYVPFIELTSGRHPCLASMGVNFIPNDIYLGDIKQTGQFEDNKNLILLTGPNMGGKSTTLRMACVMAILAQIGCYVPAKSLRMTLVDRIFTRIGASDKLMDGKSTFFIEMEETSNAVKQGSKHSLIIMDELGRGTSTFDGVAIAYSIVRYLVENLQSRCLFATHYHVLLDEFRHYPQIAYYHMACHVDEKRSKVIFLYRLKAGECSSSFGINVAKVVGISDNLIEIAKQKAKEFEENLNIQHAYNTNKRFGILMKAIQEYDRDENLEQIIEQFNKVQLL
UniProt Q23DG3: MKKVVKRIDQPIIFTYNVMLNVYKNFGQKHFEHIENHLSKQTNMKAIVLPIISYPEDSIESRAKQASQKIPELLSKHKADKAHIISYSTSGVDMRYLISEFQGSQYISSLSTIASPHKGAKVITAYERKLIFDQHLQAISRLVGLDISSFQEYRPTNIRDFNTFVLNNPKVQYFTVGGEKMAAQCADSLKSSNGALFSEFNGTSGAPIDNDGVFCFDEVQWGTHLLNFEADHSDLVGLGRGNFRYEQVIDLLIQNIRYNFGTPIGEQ
UniProt I7ME84: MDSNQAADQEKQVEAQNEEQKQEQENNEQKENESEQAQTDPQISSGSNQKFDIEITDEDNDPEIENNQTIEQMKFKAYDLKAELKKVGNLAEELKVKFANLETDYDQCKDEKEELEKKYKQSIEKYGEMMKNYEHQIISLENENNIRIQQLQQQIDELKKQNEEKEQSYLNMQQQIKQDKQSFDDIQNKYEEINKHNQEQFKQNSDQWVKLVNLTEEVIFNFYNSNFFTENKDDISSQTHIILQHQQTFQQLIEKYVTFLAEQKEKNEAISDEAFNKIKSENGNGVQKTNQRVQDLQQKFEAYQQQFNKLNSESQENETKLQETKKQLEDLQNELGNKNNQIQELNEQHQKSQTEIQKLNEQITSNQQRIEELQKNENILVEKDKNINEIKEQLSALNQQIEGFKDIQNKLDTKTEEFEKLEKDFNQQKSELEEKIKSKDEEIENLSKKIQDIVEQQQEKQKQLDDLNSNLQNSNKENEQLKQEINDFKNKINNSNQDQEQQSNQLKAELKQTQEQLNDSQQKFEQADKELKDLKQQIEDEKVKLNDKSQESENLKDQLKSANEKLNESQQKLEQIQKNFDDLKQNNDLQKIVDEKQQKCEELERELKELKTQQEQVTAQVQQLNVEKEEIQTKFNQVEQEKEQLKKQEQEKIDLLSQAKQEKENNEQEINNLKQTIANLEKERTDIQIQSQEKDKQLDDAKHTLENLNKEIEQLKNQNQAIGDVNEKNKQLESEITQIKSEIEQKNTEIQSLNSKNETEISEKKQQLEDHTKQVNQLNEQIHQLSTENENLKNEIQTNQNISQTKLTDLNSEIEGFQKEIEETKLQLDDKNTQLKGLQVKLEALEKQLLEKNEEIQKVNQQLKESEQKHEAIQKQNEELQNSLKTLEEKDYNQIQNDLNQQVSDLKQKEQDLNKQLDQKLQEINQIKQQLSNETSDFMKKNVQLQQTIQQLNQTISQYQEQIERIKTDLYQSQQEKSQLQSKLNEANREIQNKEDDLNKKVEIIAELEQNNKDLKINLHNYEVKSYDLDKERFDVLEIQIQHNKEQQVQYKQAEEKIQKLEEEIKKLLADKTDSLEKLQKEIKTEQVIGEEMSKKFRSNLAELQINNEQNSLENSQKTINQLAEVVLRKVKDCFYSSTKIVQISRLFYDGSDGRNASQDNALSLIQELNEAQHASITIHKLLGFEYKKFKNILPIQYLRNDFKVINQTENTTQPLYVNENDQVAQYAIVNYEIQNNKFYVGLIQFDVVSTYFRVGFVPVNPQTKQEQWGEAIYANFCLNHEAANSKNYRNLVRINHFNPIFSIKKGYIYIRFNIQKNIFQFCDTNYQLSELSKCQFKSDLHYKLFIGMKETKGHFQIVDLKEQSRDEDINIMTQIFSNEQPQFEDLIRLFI
UniProt Q22A23: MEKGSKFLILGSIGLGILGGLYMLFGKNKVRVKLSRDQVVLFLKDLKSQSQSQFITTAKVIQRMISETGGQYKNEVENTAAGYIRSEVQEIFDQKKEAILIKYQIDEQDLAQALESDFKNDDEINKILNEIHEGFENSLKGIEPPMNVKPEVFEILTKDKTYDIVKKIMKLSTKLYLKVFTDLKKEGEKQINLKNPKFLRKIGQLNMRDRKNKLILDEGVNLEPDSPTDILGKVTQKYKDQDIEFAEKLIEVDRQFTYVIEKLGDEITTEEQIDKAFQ
UniProt Q22BK8: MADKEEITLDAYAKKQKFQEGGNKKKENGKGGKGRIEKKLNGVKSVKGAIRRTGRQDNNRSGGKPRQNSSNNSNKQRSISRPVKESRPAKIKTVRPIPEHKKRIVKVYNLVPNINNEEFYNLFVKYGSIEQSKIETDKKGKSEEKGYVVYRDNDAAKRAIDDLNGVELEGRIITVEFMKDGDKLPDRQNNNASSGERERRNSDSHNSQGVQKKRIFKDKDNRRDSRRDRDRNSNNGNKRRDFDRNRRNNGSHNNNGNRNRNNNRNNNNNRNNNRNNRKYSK
UniProt Q23FR3: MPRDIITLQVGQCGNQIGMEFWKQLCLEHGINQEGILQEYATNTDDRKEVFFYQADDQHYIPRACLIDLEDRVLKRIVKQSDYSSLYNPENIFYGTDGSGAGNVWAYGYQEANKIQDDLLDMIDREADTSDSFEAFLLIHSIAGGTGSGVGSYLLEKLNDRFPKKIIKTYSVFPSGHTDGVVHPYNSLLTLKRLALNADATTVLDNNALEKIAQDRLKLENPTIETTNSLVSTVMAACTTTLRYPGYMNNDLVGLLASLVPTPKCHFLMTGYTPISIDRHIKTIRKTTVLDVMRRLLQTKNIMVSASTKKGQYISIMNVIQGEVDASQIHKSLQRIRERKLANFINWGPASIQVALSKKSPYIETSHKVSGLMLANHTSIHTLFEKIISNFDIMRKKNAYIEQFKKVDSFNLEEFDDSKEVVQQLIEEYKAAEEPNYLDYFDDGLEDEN

Results are given in words; binding and its absence hold for the method and conditions named. In cells and extracts the contact can be indirect. A yes stands for co-enrichment or nearness to the bait. Other partners may have been found.

One assay concerns the target Msh6^Tt-3HA (T. thermophila) (UniProt Q23K54). The assay can be described thus: affinity purification with mass spectrometry; 3 h of conjugation; cells lysed by sonication on ice in PBS; Msh6^Tt-3HA precipitated by its HA tag (Pierce HA-Tagged Magnetic IP/Co-IP kit), washes TBS and TBS-T; LC-MS/MS, MaxQuant iBAQ; WT lysate without HA tag as blank control; hits: iBAQ WT/iBAQ Msh6^Tt-3HA <= 0.05.
Turning to B1, the binding result is reported as “binds”.
Same read-out and setting: as for B2, the entry is “binds”.
B3: the binding entry is listed as “binds”.
As to B4, the binding entry is “binds”.
Same read-out and setting: the result for B5 reads “binds”; that for B6, “binds”; that for B7, “binds”.
Turning to B8, the binding result is given as “binds”.
Still for that read-out and setting: as for B9, the entry is “binds”.

The target is the same in another assay. The assay can be described thus: affinity purification with mass spectrometry; 8 h of conjugation; cells lysed by sonication on ice in PBS; Msh6^Tt-3HA precipitated by its HA tag (Pierce HA-Tagged Magnetic IP/Co-IP kit), washes TBS and TBS-T; LC-MS/MS, MaxQuant iBAQ; WT lysate without HA tag as blank control; hits: iBAQ WT/iBAQ Msh6^Tt-3HA <= 0.1.
Regarding TTHERM_00047280 (from UniProt Q23DG3), the binding entry is reported as “binds”.
Same read-out and setting: the result for NUP185 (from UniProt I7ME84) reads “binds”.
As to TTHERM_01289180 (from UniProt Q22A23), the binding result is given as “binds”.
Same read-out and setting: as for “RRM53 (RNA recognition motif-containing protein 53) (from UniProt Q22BK8)”, the entry is “binds”; as for “GTU1 (Gamma-TUbulin 1) (from UniProt Q23FR3)”, “binds”; as for B10, “binds”.
